{"source": "PubChem BioAssay AID1259254 (NCATS, 2017)", "aim": "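Finding genes that stop cells copying their DNA twice in one cycle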 (primary screen)", "cell system": "human HCT116 colorectal cancer cells", "reagents": "single siRNA against human genes", "time to read-out": "3 days", "read-out": "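Nuclei stained with Hoechst and imaged; cell-cycle phase assigned by DNA content; G2 share scaled per plate, non-targeting siRNA 0%, GMNN siRNA 100%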", "scale": "G2 robust z-score: higher = more G2 cells, more excess DNA replication", "hit rule": "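An siRNA counts as active if its G2 robust z-score lies at least 5 MADs above the screen median; here such calls match roughly 38% of GMNN control or more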", "note": "This is one part, drawn at random, of about 59,000 reagents tested. About 1,550 of all reagents (2.6%) were called active. 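G2 share is only a proxy for re-replication; each gene was hit by three separate siRNAs, and active genes were retested.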 Further read-outs or replicates are left out here. The record does not give: the amount of reagent."}
{"gene": "LYPD4 (LY6/PLAUR domain containing 4)", "PubChem SID": "SID160758558", "G2 robust z-score": -0.184, "call": "inactive"}
{"gene": "LYPD4 (LY6/PLAUR domain containing 4)", "PubChem SID": "SID160758559", "G2 robust z-score": 3.19, "call": "inactive"}
{"gene": "LYPD4 (LY6/PLAUR domain containing 4)", "PubChem SID": "SID160758560", "G2 robust z-score": -0.437, "call": "inactive"}
{"gene": "PON1 (paraoxonase 1)", "PubChem SID": "SID160714650", "G2 robust z-score": 0.469, "call": "inactive"}
{"gene": "PON1 (paraoxonase 1)", "PubChem SID": "SID160714652", "G2 robust z-score": -1.4, "call": "inactive"}
{"gene": "PON1 (paraoxonase 1)", "PubChem SID": "SID160714653", "G2 robust z-score": 0.538, "call": "inactive"}
{"gene": "PCDHB15 (protocadherin beta 15)", "PubChem SID": "SID160731544", "G2 robust z-score": 1.32, "call": "inactive"}
{"gene": "PCDHB15 (protocadherin beta 15)", "PubChem SID": "SID160744808", "G2 robust z-score": 1.8, "call": "inactive"}
{"gene": "PCDHB15 (protocadherin beta 15)", "PubChem SID": "SID160744809", "G2 robust z-score": -0.0546, "call": "inactive"}
{"gene": "NKX6-2 (NK6 homeobox 2)", "PubChem SID": "SID160724618", "G2 robust z-score": 0.723, "call": "inactive"}
{"gene": "NKX6-2 (NK6 homeobox 2)", "PubChem SID": "SID160724619", "G2 robust z-score": 0.731, "call": "inactive"}
{"gene": "NKX6-2 (NK6 homeobox 2)", "PubChem SID": "SID160752329", "G2 robust z-score": -0.905, "call": "inactive"}
{"gene": "OTOL1 (otolin 1)", "PubChem SID": "SID160757041", "G2 robust z-score": -1.26, "call": "inactive"}
{"gene": "OTOL1 (otolin 1)", "PubChem SID": "SID160757042", "G2 robust z-score": 0.612, "call": "inactive"}
{"gene": "OTOL1 (otolin 1)", "PubChem SID": "SID160757043", "G2 robust z-score": -0.748, "call": "inactive"}
{"gene": "TST (thiosulfate sulfurtransferase)", "PubChem SID": "SID160718411", "G2 robust z-score": 3.66, "call": "inactive"}
{"gene": "TST (thiosulfate sulfurtransferase)", "PubChem SID": "SID160718412", "G2 robust z-score": 1.6, "call": "inactive"}
{"gene": "TST (thiosulfate sulfurtransferase)", "PubChem SID": "SID160731858", "G2 robust z-score": -0.252, "call": "inactive"}
{"gene": "MRPS31 (mitochondrial ribosomal protein S31)", "PubChem SID": "SID160727504", "G2 robust z-score": -0.468, "call": "inactive"}
{"gene": "MRPS31 (mitochondrial ribosomal protein S31)", "PubChem SID": "SID160727510", "G2 robust z-score": -0.402, "call": "inactive"}
{"gene": "MRPS31 (mitochondrial ribosomal protein S31)", "PubChem SID": "SID160727516", "G2 robust z-score": 2.59, "call": "inactive"}
{"gene": "COMMD9 (COMM domain containing 9)", "PubChem SID": "SID160733029", "G2 robust z-score": 0.272, "call": "inactive"}
{"gene": "COMMD9 (COMM domain containing 9)", "PubChem SID": "SID160739061", "G2 robust z-score": -0.225, "call": "inactive"}
{"gene": "COMMD9 (COMM domain containing 9)", "PubChem SID": "SID160739062", "G2 robust z-score": 1.75, "call": "inactive"}
{"gene": "COMMD9 (COMM domain containing 9)", "PubChem SID": "SID160766874", "G2 robust z-score": 1.57, "call": "inactive"}
{"gene": "COMMD9 (COMM domain containing 9)", "PubChem SID": "SID160766875", "G2 robust z-score": -0.805, "call": "inactive"}
{"gene": "COMMD9 (COMM domain containing 9)", "PubChem SID": "SID160766876", "G2 robust z-score": 1.2, "call": "inactive"}
{"gene": "OIP5-AS1 (OIP5 antisense RNA 1)", "PubChem SID": "SID160772417", "G2 robust z-score": 1.29, "call": "inactive"}
{"gene": "OIP5-AS1 (OIP5 antisense RNA 1)", "PubChem SID": "SID160772418", "G2 robust z-score": 0.988, "call": "inactive"}
{"gene": "OIP5-AS1 (OIP5 antisense RNA 1)", "PubChem SID": "SID160772419", "G2 robust z-score": 0.874, "call": "inactive"}

2 successive records from above, quoted:
{"gene": "COMMD9 (COMM domain containing 9)", "PubChem SID": "SID160766874", "G2 robust z-score": 1.57, "call": "inactive"}
{"gene": "COMMD9 (COMM domain containing 9)", "PubChem SID": "SID160766875", "G2 robust z-score": -0.805, "call": "inactive"}
